Source: patent US20030225152A1, “3-(Arylamino)methylene-1, 3-dihydro-2h-indol-2-ones as kinase inhibitors” (priority 2001, published 2003)
Some of these results come from one statement about several compounds together. At least one read-out could not be matched to a standard name with certainty.

System: VEGF induced increases in intracellular calcium levels in HUVEC (human umbilical vein endothelial cells)
Experiment: VEGF Stimulated Ca++ Signal in vitro (FLIPR)
Type: cell-based
Settings: either-or criterion summarising Table 2
Procedure: Cells were loaded with calcium indicator Fluo-4 for 45 minutes at 37° C. Cells were washed 4 times (Original Cell Wash, Labsystems) to remove extracellular dye. […] Data were generated by determining max-min fluorescence levels for unstimulated, stimulated, and drug treated samples. IC50 values for test compounds were calculated from % inhibition of VEGF stimulated responses in the absence of inhibitor.

| SMILES | % inhibition of VEGF or VEGF IC50 in either the VEGF stimulated Ca++ signal assay or KDR assay |
| --- | --- |
| O=C(O)CCCc1ccc(NC=C2C(=O)Nc3ccccc32)cc1 [Example 139, 4-{4-[(2-Oxo-1,2-dihydro-indol-3-ylidenemethyl)-amino]-phenyl}-butyric acid] | either % inhibition of VEGF>79% or VEGIF IC50<1.0 μM |
| O=C(O)CCc1cccc(NC=C2C(=O)Nc3ccccc32)c1 [Example 141, 3-{3-[(2-Oxo-1,2-dihydro-indol-3-ylidenemethyl)-amino]-phenyl}-propionic acid] | either % inhibition of VEGF>79% or VEGIF IC50<1.0 μM |
| Cc1cccc2c1C(=CNc1cccc(CCC(=O)O)c1)C(=O)N2 [Example 142, 3-{3-[(4-Methyl-2-oxo-1,2-dihydro-indol-3-ylidenemethyl)-amino]-phenyl}-propionic acid] | either % inhibition of VEGF>79% or VEGIF IC50<1.0 μM |
| O=C(O)CCc1cccc(NC=C2C(=O)Nc3ccc(Cl)cc32)c1 [Example 143, 3-{3-[(5-Chloro-2-oxo-1,2-dihydro-indol-3-ylidenemethyl)-amino]-phenyl}-propionic acid] | either % inhibition of VEGF>79% or VEGIF IC50<1.0 μM |
| O=C(O)CCc1ccc(NC=C2C(=O)Nc3ccccc32)cc1 [Example 144, 3-{4-[(2-Oxo-1,2-dihydro-indol-3-ylidenemethyl)-amino]-phenyl}-propionic acid] | either % inhibition of VEGF>79% or VEGIF IC50<1.0 μM |
| O=C(O)CCc1ccc(NC=C2C(=O)Nc3ccc(Cl)cc32)cc1 [Example 146, 3-{4-[(5-Chloro-2-oxo-1,2-dihydro-indol-3-ylidenemethyl)-amino]-phenyl}-propionic acid] | either % inhibition of VEGF>79% or VEGIF IC50<1.0 μM |
| CCc1cccc(NC=C2C(=O)Nc3cccc(C)c32)c1 [Example 147, 3-[(3-Ethyl-phenylamino)-methylene]-4-methyl-1,3-dihydro-indol-2-one] | either % inhibition of VEGF>79% or VEGIF IC50<1.0 μM |
| CCc1ccc(NC=C2C(=O)Nc3ccc(Cl)cc32)cc1 [Example 149, 5-Chloro-3-[(4-ethyl-phenylamino)-methylene]-1,3-dihydro-indol-2-one] | either % inhibition of VEGF>79% or VEGIF IC50<1.0 μM |
| O=C(O)CCCc1ccc(NC=C2C(=O)Nc3ccc(Cl)cc32)cc1 [Example 150, 4-{4-[(5-Chloro-2-oxo-1,2-dihydro-indol-3-ylidenemethyl)-amino]-phenyl}-butyric acid] | either % inhibition of VEGF>79% or VEGIF IC50<1.0 μM |
| CCc1ccc(NC=C2C(=O)Nc3cccc(C)c32)cc1 [Example 151, 3-[(4-Ethyl-phenylamino)-methylene]-4-methyl-1,3-dihydro-indol-2-one] | either % inhibition of VEGF>79% or VEGIF IC50<1.0 μM |
| Cc1cccc2c1C(=CNc1ccc(C(=O)O)c(O)c1)C(=O)N2 [Example 155, 2-Hydroxy-4-[(4-methyl-2-oxo-1,2-dihydro-indol-3-ylidenemethyl)-amino]-benzoic acid] | either % inhibition of VEGF>79% or VEGIF IC50<1.0 μM |
| O=C1Nc2ccccc2C1=CNc1ccc(N2CCCCC2)cc1 [Example 158, 3-[(4-Piperidin-1-yl-phenylamino)-methylene]-1,3-dihydro-indol-2-one] | either % inhibition of VEGF>79% or VEGIF IC50<1.0 μM |
| CCN(CC)Cc1cc(NC=C2C(=O)Nc3ccccc32)ccc1O [Example 160, 3-[(3-Diethylaminomethyl-4-hydroxy-phenylamino)-methylene]-1,3-dihydro-indol-2-one] | either % inhibition of VEGF>79% or VEGIF IC50<1.0 μM |
| CCN(CC)Cc1cc(NC=C2C(=O)Nc3cccc(C)c32)ccc1O [Example 161, 3-[(3-Diethylaminomethyl-4-hydroxy-phenylamino)-methylene]-4-methyl-1,3-dihydro-indol-2-one] | either % inhibition of VEGF>79% or VEGIF IC50<1.0 μM |
| O=C1Nc2ccc(F)cc2C1=CNc1ccc2[nH]ccc2c1 [Example 162, 5-Fluoro-3-[(1 h-indol-5-ylamino)-methylene]-1,3-dihydro-indol-2-one] | either % inhibition of VEGF>79% or VEGIF IC50<1.0 μM |
| O=C(O)CCc1ccc(NC=C2C(=O)Nc3ccc(F)cc32)cc1 [Example 165, 3-{4-[(5-Fluoro-2-oxo-1,2-dihydro-indol-3-ylidenemethyl)-amino]-phenyl}-propionic acid] | either % inhibition of VEGF>79% or VEGIF IC50<1.0 μM |

| SMILES | % inhibition of VEGF or VEGF IC50 in either the VEGF stimulated Ca++ signal assay or KDR assay |
| --- | --- |
| NS(=O)(=O)c1ccc(NC=C2C(=O)Nc3ccc(F)cc32)cc1 [Example 166, 4-[(5-Fluoro-2-oxo-1,2-dihydro-indol-3-ylidenemethyl)-amino]-benzenesulfonamide] | either % inhibition of VEGF>79% or VEGIF IC50<1.0 μM |
| O=C1Nc2ccc(F)cc2C1=CNc1ccccc1 [Example 169, 5-Fluoro-3-phenylaminomethylene-1,3-dihydro-indol-2-one] | either % inhibition of VEGF>79% or VEGIF IC50<1.0 μM |
| CSc1ccc(NC=C2C(=O)Nc3ccc(F)cc32)cc1 [Example 171, 5-Fluoro-3-[(4-methylsulfanyl-phenylamino)-methylene]-1,3-dihydro-indol-2-one] | either % inhibition of VEGF>79% or VEGIF IC50<1.0 μM |
| COc1ccc(NC=C2C(=O)Nc3ccc(F)cc32)cc1F [Example 172, 5-Fluoro-3-[(3-fluoro-4-methoxy-phenylamino)-methylene]-1,3-dihydro-indol-2-one] | either % inhibition of VEGF>79% or VEGIF IC50<1.0 μM |
| O=C1Nc2ccc(F)cc2C1=CNc1ccc2ncsc2c1 [Example 173, 3-(Benzothiazol-6-ylaminomethylene)-5-fluoro-1,3-dihydro-indol-2-one] | either % inhibition of VEGF>79% or VEGIF IC50<1.0 μM |
| O=C(O)Cc1ccc(NC=C2C(=O)Nc3ccc(F)cc32)cc1 [Example 174, {4-[(5-Fluoro-2-oxo-1,2-dihydro-indol-3-ylidenemethyl)-amino]-phenyl}-acetic acid] | either % inhibition of VEGF>79% or VEGIF IC50<1.0 μM |
| O=C(O)CCc1cccc(NC=C2C(=O)Nc3ccc(F)cc32)c1 [Example 175, 3-{3-[(5-Fluoro-2-oxo-1,2-dihydro-indol-3-ylidenemethyl)-amino]-phenyl}-propionic acid] | either % inhibition of VEGF>79% or VEGIF IC50<1.0 μM |
| CCc1cccc(NC=C2C(=O)Nc3ccc(F)cc32)c1 [Example 176, 3-[(3-Ethyl-phenylamino)-methylene]-5-fluoro-1,3-dihydro-indol-2-one] | either % inhibition of VEGF>79% or VEGIF IC50<1.0 μM |
| O=C1Nc2ccc(F)cc2C1=CNc1ccc(CO)cc1 [Example 178, 5-Fluoro-3-[(4-hydroxymethyl-phenylamino)-methylene]-1,3-dihydro-indol-2-one] | either % inhibition of VEGF>79% or VEGIF IC50<1.0 μM |
| Nc1ccc(NC=C2C(=O)Nc3ccccc32)cc1 [Example 180, 3-[(4-Amino-phenylamino)-methylene]-1,3-dihydro-indol-2-one] | either % inhibition of VEGF>79% or VEGIF IC50<1.0 μM |
| CC(O)c1cccc(NC=C2C(=O)Nc3ccccc32)c1 (centres unmarked) [Example 182, 3-{[3-(1-Hydroxy-ethyl)-phenylamino]-methylene}-1,3-dihydro-indol-2-one] | either % inhibition of VEGF>79% or VEGIF IC50<1.0 μM |
| O=C1Nc2ccccc2C1=CNc1cccc(CO)c1 [Example 184, 3-[(3-Hydroxymethyl-phenylamino)-methylene]-1,3-dihydro-indol-2-one] | either % inhibition of VEGF>79% or VEGIF IC50<1.0 μM |
| CC(C)(C)OC(=O)Nc1ccc(NC=C2C(=O)Nc3ccccc32)cc1 [Example 186, {4-[(2-Oxo-1,2-dihydro-indol-3-ylidenemethyl)-amino]-phenyl}-carbamic acid tert-butyl ester] | either % inhibition of VEGF>79% or VEGIF IC50<1.0 μM |
| Cc1cccc2c1C(=CNc1ccc(NC(=O)OC(C)(C)C)cc1)C(=O)N2 [Example 187, {4-[(4-Methyl-2-oxo-1,2-dihydro-indol-3-ylidenemethyl)-amino]-phenyl}-carbamic acid tert-butyl ester] | either % inhibition of VEGF>79% or VEGIF IC50<1.0 μM |
| Cc1cccc2c1C(=CNc1cccc(S(=O)(=O)N(CCO)CCO)c1)C(=O)N2 [Example 191, N,N-Bis-(2-hydroxy-ethyl)-3-[(4-methyl-2-oxo-1,2-dihydro-indol-3-ylidenemethyl)-amino]-benzenesulfonamide] | either % inhibition of VEGF>79% or VEGIF IC50<1.0 μM |
| O=C1Nc2ccccc2C1=CNc1ccc(S(=O)(=O)NCCO)cc1 [Example 192, N-(2-Hydroxy-ethyl)-4-[(2-oxo-1,2-dihydro-indol-3-ylidenemethyl)-amino]-benzenesulfonamide] | either % inhibition of VEGF>79% or VEGIF IC50<1.0 μM |
